Paper PMC8429893, “CTP regulates membrane-binding activity of the nucleoid occlusion protein Noc” (Molecular Cell, 2021)

Target: T1, Noc (Bacillus subtilis) (UniProt P37524)
T1 sequence (looked up, limits assumed): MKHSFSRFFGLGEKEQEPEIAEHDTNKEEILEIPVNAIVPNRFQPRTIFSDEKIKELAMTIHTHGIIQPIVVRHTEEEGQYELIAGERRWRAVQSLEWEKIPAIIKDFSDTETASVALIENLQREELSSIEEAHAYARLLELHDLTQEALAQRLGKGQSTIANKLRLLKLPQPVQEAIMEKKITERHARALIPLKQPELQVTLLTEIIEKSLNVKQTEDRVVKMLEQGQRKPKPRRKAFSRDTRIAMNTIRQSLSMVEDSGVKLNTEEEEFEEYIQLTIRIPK
Test: BLI
Conditions: no nucleotide, nucleation only; BLI: 100 mM Tris-HCl pH 8.0, 150 mM NaCl, 1 mM MgCl2, 0.005% Tween 20, 22 C; 1 uM Noc dimer +/- 1 mM NTP; recombinant protein; protein details: C-terminal His6; label: biotin at M13F end; letters put together from the description

CGCCAGGGTTTTCCCAGTCACGACGTTGTAAAACGACGGCCAGAATTCGCAACGTGTATTTCCCGGGAAATAGCCTTGAACTGATAACGACTCTATCATTGATAGAGTGTTCTCTCCACGG / GATCCCGTGGAGAGAACACTCTATCAATGATAGAGTCGTTATCAGTTCAAGGCTATTTCCCGGGAAATACACGTTGCGAATTCTGGCCGTCGTTTTACAACGTCGTGACTGGGAAAACCCTGGCG [170 bp NBS DNA, BamHI-cut (open)]
binding result: binds

The exact form of at least one protein or probe is not confirmed. At least one verdict rests on a figure or table, not on a statement of the authors. Protein sequences can lack the tags named with them.
